In patent EP2717941B1:
Results are given in words; binding and its absence hold for the method and conditions named. Some entries that bind do so weakly or less than the wild type.

Tests used:
CCR4 (human) [1] = target: T1, CCR4 (human) (UniProt P51679); test: flow cytometry, legend of FIG. 12
T1 sequence (looked up): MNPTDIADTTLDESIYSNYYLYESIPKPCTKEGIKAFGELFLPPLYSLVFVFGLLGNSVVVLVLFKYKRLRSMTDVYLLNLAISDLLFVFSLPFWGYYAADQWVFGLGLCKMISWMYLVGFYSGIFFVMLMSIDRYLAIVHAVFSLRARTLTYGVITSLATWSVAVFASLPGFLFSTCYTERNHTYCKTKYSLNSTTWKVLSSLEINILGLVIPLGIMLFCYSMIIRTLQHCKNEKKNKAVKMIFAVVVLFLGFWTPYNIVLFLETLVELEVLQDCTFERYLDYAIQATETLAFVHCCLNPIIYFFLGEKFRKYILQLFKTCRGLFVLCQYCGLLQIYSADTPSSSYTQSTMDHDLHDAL

CCR4 (human) [2] = target: T1, CCR4 (human); test: flow cytometry, biotinylated chemokine on CCR4-expressing Tregs
CCR4 (human) [3] = target: T1, CCR4 (human); test: flow cytometry, biotinylated chemokine (1 µM) detected with fluorophore-streptavidin, Tregs of a PC patient

Measured: binding

B1: biotinylated MDC (bMDC) (ligand, human, UniProt O00626 25-93, looked up)
chain: GPYGANMEDSVCCRDYVRYRLPLRVVKHFYWTSDSCPRPGVVLLTFRDKEICADPRVPWVKMILNKLSQ
modifications: biotinylated (site not stated in Reference Example 2B)
binds: all assays above
